Data as given in PubChem BioAssay AID1259425 (University of Nebraska Medical Center, 2018).
Test: 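Find knockdowns that reproduce the gene expression pattern seen when KSR1 is lost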 (primary screen). Cells: HCT116 human colon cancer cells. Knock-down reagent: siRNA pool against human genes, 50 nM siRNA. Measured: 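mRNA of six signature genes measured together by branched-DNA assay after 50 nM siRNA pool, blank removed, divided by geometric mean of two housekeeping genes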. Reading the numbers: BNIP3L mRNA: higher = more BNIP3L transcript after knockdown; NDRG1 mRNA: higher = more NDRG1 transcript after knockdown; BNIP3 mRNA: higher = more BNIP3 transcript after knockdown; ALDOC mRNA: higher = more ALDOC transcript after knockdown; ACSL5 mRNA: higher = more ACSL5 transcript after knockdown.
Shown is an unselected part of about 14,000 reagents tested. The record does not give: the time to read-out.

Gene | BNIP3L mRNA, set 1 | NDRG1 mRNA, set 1 | BNIP3 mRNA, set 1 | ALDOC mRNA, set 1 | ACSL5 mRNA, set 1
CDK12 | 0.0944 | 0.351 | 0.168 | 0.00837 | 0.145
WIPI1 | 0.0618 | 1.27 | 0.387 | 0.0436 | 0.173
PACSIN1 | 0.132 | 0.185 | 0.546 | 0.00965 | 0.172
KLF1 | 0.127 | 0.189 | 0.3 | 0.0073 | 0.254
LUM | 0.19 | 0.188 | 0.603 | 0.0192 | 0.118
TRIM63 | 0.391 | 0.346 | 0.722 | 0.124 | 0.384
ATP5MG | 0.0511 | 0.225 | 0.284 | 0.016 | 0.181
NLRC5 | 0.161 | 0.178 | 0.17 | 0.0689 | 0.186
RECQL | 0.0809 | 0.166 | 0.21 | 0.00694 | 0.175
DEF8 | 0.128 | 1.63 | 0.338 | 0.0198 | 0.182
IL3 | 0.0343 | 0.161 | 0.202 | 0.0317 | 0.0786
CABP4 | 0.197 | 0.224 | 0.404 | 0.0564 | 0.149
ZNF337 | 0.192 | 0.484 | 0.521 | 0.0479 | 0.198
DDHD2 | 0.122 | 0.284 | 0.367 | 0.0786 | 0.117
DRC3 | 0.161 | 0.213 | 0.253 | 0.0828 | 0.13
TPH1 | 0.164 | 0.255 | 0.293 | 0.0297 | 0.306
SANBR | 0.132 | 0.21 | 0.333 | 0.0557 | 0.17
TLK2 | 0.0794 | 0.195 | 0.469 | 0.0205 | 0.171
MCHR2 | 0.171 | 0.212 | 0.314 | 0.0653 | 0.184
GKN1 | 0.0949 | 0.163 | 0.285 | 0.0496 | 0.246
LRRC8D | 0.155 | 0.0997 | 0.235 | 0.0185 | 0.0661
RTL8C | 0.128 | 0.369 | 0.343 | 0.024 | 0.334
DDX39B | 0.106 | 0.244 | 0.38 | 0.0723 | 0.207
SNX14 | 0.17 | 0.463 | 0.306 | 0.0711 | 0.253
CHAC1 | 0.102 | 0.159 | 0.249 | 0.0277 | 0.13
RARRES1 | 0.109 | 0.23 | 0.347 | 0.0427 | 0.12
ZNF180 | 0.121 | 0.226 | 0.255 | 0.051 | 0.132
STARD5 | 0.166 | 0.353 | 0.45 | 0.03 | 0.168
EED | 0.103 | 0.228 | 0.297 | 0.0101 | 0.2
ANO1 | 0.0655 | 0.0971 | 0.245 | 0.0271 | 0.0995
PPT1 | 0.12 | 0.112 | 0.272 | 0.0243 | 0.0934
PNMA2 | 0.127 | 0.0817 | 0.304 | 0.0173 | 0.258
FA2H | 0.0827 | 0.337 | 0.373 | 0.0648 | 0.221
CYP2C8 | 0.0707 | 0.154 | 0.278 | 0.0129 | 0.257
